Library screen at single concentrations

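Whole-parasite assay of Trypanosoma brucei over 72 hours; the read-out is not stated. Concentration: 30 µM. Higher reads as stronger inhibition (inferred: compounds with an IC50 in retests scored well above the rest). Values scatter widely below zero; nearly all retest evidence comes from the higher of the two concentrations used. About 64,000 compounds were tested under these conditions; 1.5% (about 940) showed 50% or more at least once.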

The filed quantity is “Percent Effect” (%).
How 0% and 100% were set is not recorded. Most values in the screen are low, and negative values occur.
The compounds are a random part of those screened.

compound | percent effect
O=C1CC(c2ccccc2C(F)(F)F)c2sc(N3CCOCC3)nc2N1 (stereo unspecified) | -6.86
CCNc1cc2c(nn1)CCN(C(=O)C1COc3ccccc3O1)C2 (stereo unspecified) | 14.87
Cn1c2c(c(=O)n1C)CN(C(=O)c1ccco1)CCC2 | -63.44
COCc1ccccc1NC(=O)c1ccoc1 | -20.3
Cc1cc(S(=O)(=O)N2CCc3ccc(F)cc32)cc(C(=O)O)c1C | -2.783
[H][C@]12CCN(S(=O)(=O)Cc3ccccc3)[C@@]1([H])CC[C@H](COCC)O2 | -9.779
Cn1ccc(C(=O)NCc2ccc(Cn3ccnc3)cc2)cc1=O | 6.748
COCc1nnc(-c2cccc(C(=O)OC(C)C)c2)o1 | -32.64
CN(C)C(=O)N1CCc2ccc(=O)[nH]c2CC1 | -82.54
N#Cc1ccnc(N2CCC(NCCN3CCOCC3)CC2)c1 | -40.02
O=C(Cc1ccc(-c2ccccc2)cc1)N1CCOCC(O)C1 (stereo unspecified) | -24.62
Cc1ccccc1Oc1ncccc1CNC(=O)Cn1cccnc1=O | -113.5
CC(C)N(Cc1nccn1C)C(=O)c1cc(Cl)c[nH]c1=O | -21.9
O=C(CC1CC1)NCc1cn2c(n1)CN(C(=O)C1CCOCC1)CC2 | -10.15
Cn1cc(CCC(=O)NC(c2ccc(F)cc2)C(F)(F)F)cn1 (stereo unspecified) | -19.18
Cn1ccnc1CCNC(=O)NCCC1CCCCO1 (stereo unspecified) | -12.21
CC1(C(N)=O)CCCN(c2cnccn2)C1 (stereo unspecified) | -5.362
COc1cccc(CNC(=O)c2nc3c(o2)CN(S(C)(=O)=O)C3)c1 | -47.82
COC(=O)CN1N=C(C(=O)N2CCCC2)S(=O)(=O)c2ccccc21 | 4.812
CC(=O)c1cnc(N(C)Cc2cc(C)cc(C)n2)nc1C | -17.01
O=C(NCc1cn2c(n1)CN(Cc1ccccn1)CC2)C1CCC1.O=C(O)C(F)(F)F.O=C(O)C(F)(F)F | 16.91
CC(=O)N1CCC(NC(=O)N(C)Cc2c(C)noc2C)CC1 | 4.516
CC1CCN(S(=O)(=O)NC(C)Cc2ccco2)CC1 (stereo unspecified) | -7.015
[H][C@@]12CN(c3ncnc4sccc34)C[C@]1(C(=O)O)CN(CC1CC1)C2=O | 38.73
OC(COCc1ccc(Cl)cc1)CN1CCC(c2ccn[nH]2)CC1 (stereo unspecified) | 24.44
CC(C)c1nc(C2CCCN(C(=O)c3cccc4c3OCO4)C2)no1 (stereo unspecified) | 10.2
O=C(O)C(F)(F)F.[H][C@@]12CCN(C3CCC3)C[C@]1(C(=O)N1CCOCC1)CCO2 | -13.96
O=C(O)C(F)(F)F.[H][C@@]12COC[C@]1(c1nnc(C)o1)CN(S(=O)(=O)c1cccnc1)C2 | -58.67
COCCCNC(=O)C1(NC(=O)c2ccc3[nH]ncc3c2)CCCC1 | -34.63
Cc1ccc(-c2nc(CN3CCn4c(nnc4C4CC4)C3)cs2)o1 | -23.13
Cc1nc(NC2CC(C)(C)NC(C)(C)C2)c2c(n1)c(C)nn2C | 18.74
Cn1ccnc1C1CCN(CCN2CCOCC2)CC1 | -16.28
CCc1nc(Cn2c(=O)n(C)c3ccccc32)no1 | -29.3
CCOC(=O)c1cnn(-c2cc(Oc3ccccc3)ncn2)c1N | -44.34
COc1ccc(F)c(CN2CCCC3(CCN(S(C)(=O)=O)C3)C2)c1 (stereo unspecified) | -44.54
OC1(CN2CCCCC2)CCN(c2cc(C(F)(F)F)ccn2)C1 (stereo unspecified) | -6.658
O=C(O)C(F)(F)F.[H][C@@]12CCN(C(=O)c3cnn(C)c3)[C@@]1([H])CCN2Cc1ccccc1 | -16.18
CCOC1CC2(CCN(Cc3cnn(C)c3)CC2)c2ccc(C)cc21 (stereo unspecified) | -29.18
Cc1noc(C(C)N2CCN(c3ccc(C#N)cn3)CC2)n1 (stereo unspecified) | -16.88
CC1CN=C(N2CCN(C(=O)Nc3nc(-c4ccccc4)ns3)CC2)S1 (stereo unspecified) | -47.18
CN1CCOCC12CCN(Cc1nccs1)CC2 | -53.42
CCN1CCN(CC(O)c2ccc(Br)cc2)CC1 (stereo unspecified) | -19.21
CCN1CCN(CCCNc2ncccn2)CC1 | 9.142
CN(C(=O)c1ccon1)[C@@H]1CCC[C@@H](Oc2ccccc2)[C@@H]1O | -27.68
O=C(O)C(F)(F)F.O=C(O)C(F)(F)F.[H][C@@]12CN(CC3CC3)C[C@]1([H])[C@@H](OC)CCN2S(=O)(=O)c1cccnc1 | -143.3
[H][C@@]12COC[C@]1([H])[C@@H](OCc1cccnc1)CN2C(=O)c1cscn1 | -80.51
COc1cccc(-n2nnc(C(=O)N3CCC(C(N)=O)CC3)c2C)c1 | 3.341
[H][C@@]12C[C@H](C(=O)N3CCCCO3)CN(Cc3ccncc3)[C@]1([H])CCO2 | 39.69
COc1cc(C)nc(N2CCN(C(C)c3nc(C)no3)CC2)n1 (stereo unspecified) | -30.56
Cn1ccnc1C1CCCN(C(=O)c2ccc3nccnc3c2)C1 (stereo unspecified) | -54.44
Cc1cc(C)n(CC2CN(CCOc3ccccc3F)CCO2)n1 (stereo unspecified) | 1.034
CCn1cc(CN(C)S(=O)(=O)c2ccc(C(C)C)cc2)cn1 | 6.756
Cc1nccn1CCCC(=O)N1CCC(N(C)c2cccnn2)CC1 | 7.755
CC(C#N)CSc1ccccc1NCC(=O)NC(=O)NC(C)(C)C (stereo unspecified) | -21.19
O=C1NC2(Nc3ncccc31)C(=O)Nc1c2ccc(Cl)c1F (stereo unspecified) | 9.908
CN(C)C(=O)CN1CCC2(COCc3cnc(-c4cccnc4)nc32)C1.O=C(O)C(F)(F)F.O=C(O)C(F)(F)F (stereo unspecified) | -72.36
O=C(O)C(F)(F)F.[H][C@]12CCN(C(=O)c3ccc4[nH]ccc4c3)C[C@@]1([H])OCCN(C)C2 | -5.006
CN(CC(=O)N1CCCC1)C(=O)c1ccccc1Nc1ccccc1 | -24.61
CN1CCCN(c2nc3c(cnn3C(C)(C)C)c(=O)[nH]2)CC1 | -62.2
CN(C)CCn1c(=O)oc2ccc(NC(=O)c3cc(Cl)c[nH]3)cc21 | 2.089
Cc1n[nH]cc1CNCC1(c2cccc(F)c2)CCOCC1.Cl | 8.451
CC(C)NC(=O)C1CN(C(=O)CCc2ccccc2)CC12CCOCC2 (stereo unspecified) | -34.77

Repeated from the top, 4 entries:

| compound | percent effect |
|---|---|
| `O=C1CC(c2ccccc2C(F)(F)F)c2sc(N3CCOCC3)nc2N1` (stereo unspecified) | -6.86 |
| `CCNc1cc2c(nn1)CCN(C(=O)C1COc3ccccc3O1)C2` (stereo unspecified) | 14.87 |
| `Cn1c2c(c(=O)n1C)CN(C(=O)c1ccco1)CCC2` | -63.44 |
| `COCc1ccccc1NC(=O)c1ccoc1` | -20.3 |

From ChEMBL document CHEMBL3988442, “University of Dundee, Small-Polar-MMV Screening Library” (2021).